Reference: the supplement of paper PMC10849652
This is one part of the list.

Chains of the proteins cited; added tags and fusions are not shown. Lines headed by an entry give the natural chain unless they say otherwise; changes in a name come on top.
UniProt Q14444, whole entry, looked up: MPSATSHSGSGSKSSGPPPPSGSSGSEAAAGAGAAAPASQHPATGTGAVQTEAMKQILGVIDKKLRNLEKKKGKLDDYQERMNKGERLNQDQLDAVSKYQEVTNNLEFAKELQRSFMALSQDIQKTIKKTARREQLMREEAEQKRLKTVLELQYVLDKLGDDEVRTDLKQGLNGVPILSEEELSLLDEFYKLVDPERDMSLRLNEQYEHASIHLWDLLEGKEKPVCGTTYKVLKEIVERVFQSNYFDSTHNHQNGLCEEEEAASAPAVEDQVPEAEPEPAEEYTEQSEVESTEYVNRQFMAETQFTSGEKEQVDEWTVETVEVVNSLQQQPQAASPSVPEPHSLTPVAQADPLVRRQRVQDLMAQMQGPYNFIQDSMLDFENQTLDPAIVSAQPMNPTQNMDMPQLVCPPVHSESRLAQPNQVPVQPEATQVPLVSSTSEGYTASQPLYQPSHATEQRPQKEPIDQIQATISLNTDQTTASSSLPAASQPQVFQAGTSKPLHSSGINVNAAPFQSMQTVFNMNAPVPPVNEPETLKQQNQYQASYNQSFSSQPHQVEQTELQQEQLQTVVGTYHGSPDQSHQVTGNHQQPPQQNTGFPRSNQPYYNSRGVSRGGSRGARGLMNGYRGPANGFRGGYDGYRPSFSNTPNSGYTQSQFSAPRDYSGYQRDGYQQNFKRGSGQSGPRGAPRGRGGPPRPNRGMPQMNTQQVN
UniProt Q9NZ63: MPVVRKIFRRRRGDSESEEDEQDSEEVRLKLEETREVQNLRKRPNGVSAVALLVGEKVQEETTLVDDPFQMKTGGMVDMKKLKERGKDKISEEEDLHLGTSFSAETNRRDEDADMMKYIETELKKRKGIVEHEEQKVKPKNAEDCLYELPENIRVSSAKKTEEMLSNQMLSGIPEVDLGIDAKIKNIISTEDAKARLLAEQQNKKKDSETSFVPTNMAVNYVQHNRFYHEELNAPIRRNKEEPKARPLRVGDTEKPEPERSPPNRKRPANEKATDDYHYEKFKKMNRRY
UniProt O75155: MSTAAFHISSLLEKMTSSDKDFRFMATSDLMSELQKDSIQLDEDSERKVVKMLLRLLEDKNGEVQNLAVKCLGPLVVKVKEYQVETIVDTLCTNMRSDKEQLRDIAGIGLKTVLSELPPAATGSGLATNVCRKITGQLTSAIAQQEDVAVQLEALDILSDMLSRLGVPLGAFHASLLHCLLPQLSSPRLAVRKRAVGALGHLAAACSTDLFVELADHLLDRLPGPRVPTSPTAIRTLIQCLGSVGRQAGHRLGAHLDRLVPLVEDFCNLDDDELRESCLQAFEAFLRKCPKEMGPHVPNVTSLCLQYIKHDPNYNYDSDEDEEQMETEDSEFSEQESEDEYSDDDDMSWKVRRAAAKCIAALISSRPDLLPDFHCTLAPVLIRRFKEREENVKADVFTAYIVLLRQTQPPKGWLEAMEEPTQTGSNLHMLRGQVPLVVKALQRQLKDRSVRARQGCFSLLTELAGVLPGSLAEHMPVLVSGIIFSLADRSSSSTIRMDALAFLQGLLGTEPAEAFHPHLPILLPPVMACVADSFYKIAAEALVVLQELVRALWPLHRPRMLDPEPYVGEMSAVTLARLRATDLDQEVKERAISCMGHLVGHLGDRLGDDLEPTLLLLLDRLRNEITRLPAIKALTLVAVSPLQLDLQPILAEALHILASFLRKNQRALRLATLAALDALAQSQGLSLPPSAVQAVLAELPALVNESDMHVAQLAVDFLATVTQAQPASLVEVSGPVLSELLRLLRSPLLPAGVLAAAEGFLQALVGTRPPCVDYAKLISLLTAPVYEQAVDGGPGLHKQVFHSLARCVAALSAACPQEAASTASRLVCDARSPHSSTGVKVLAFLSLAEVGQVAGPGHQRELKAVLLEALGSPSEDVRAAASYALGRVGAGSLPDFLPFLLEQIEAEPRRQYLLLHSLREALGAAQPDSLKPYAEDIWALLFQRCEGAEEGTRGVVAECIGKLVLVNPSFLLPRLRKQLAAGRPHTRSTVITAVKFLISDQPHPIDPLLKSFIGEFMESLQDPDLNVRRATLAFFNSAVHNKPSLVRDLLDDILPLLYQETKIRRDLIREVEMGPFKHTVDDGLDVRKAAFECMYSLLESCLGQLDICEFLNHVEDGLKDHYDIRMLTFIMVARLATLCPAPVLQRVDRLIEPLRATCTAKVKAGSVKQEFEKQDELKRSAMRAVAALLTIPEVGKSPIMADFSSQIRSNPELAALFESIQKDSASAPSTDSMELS
UniProt O43684, whole entry, looked up: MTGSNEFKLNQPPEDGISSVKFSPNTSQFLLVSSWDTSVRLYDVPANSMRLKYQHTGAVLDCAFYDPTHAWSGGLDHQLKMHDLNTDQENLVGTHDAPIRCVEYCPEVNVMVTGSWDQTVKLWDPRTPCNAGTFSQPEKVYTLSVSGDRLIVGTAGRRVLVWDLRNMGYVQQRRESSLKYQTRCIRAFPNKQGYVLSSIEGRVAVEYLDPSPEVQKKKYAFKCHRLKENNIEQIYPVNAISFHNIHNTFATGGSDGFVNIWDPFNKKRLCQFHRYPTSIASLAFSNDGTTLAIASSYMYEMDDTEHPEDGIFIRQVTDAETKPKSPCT
UniProt Q96B23: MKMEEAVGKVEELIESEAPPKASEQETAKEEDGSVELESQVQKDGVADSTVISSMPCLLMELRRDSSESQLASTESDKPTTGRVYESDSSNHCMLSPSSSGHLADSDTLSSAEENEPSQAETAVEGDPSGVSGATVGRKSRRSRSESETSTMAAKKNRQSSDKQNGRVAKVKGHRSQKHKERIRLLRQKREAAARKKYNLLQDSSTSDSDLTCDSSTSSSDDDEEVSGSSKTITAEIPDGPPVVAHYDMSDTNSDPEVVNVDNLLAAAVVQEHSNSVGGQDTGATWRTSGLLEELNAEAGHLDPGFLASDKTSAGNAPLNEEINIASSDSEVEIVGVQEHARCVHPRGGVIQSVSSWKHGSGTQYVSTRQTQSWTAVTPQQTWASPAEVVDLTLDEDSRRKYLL
UniProt Q6P1X6: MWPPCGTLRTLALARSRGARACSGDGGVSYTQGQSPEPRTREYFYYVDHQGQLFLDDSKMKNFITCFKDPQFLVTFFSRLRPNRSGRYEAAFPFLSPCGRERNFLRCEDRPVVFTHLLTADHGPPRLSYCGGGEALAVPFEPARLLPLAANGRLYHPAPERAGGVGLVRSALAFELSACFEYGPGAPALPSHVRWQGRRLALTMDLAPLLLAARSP
UniProt Q96EU7: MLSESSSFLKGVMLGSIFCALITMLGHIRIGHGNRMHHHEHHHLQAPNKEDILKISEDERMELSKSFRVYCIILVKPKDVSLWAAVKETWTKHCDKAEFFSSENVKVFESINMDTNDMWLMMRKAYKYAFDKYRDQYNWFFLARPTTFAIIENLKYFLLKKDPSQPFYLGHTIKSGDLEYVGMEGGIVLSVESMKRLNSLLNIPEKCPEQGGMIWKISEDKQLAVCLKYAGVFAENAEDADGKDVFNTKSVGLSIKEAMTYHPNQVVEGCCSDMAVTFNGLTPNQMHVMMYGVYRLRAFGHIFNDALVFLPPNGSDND
UniProt P40121: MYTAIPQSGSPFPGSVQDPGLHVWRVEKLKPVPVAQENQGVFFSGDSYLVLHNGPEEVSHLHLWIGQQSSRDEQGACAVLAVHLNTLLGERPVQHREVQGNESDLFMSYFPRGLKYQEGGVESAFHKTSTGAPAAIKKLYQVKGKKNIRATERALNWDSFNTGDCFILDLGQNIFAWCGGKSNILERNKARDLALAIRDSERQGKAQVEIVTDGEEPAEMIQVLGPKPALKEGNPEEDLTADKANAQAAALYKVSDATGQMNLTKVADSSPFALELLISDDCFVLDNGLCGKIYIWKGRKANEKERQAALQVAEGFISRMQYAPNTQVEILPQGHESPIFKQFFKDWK
UniProt P27824: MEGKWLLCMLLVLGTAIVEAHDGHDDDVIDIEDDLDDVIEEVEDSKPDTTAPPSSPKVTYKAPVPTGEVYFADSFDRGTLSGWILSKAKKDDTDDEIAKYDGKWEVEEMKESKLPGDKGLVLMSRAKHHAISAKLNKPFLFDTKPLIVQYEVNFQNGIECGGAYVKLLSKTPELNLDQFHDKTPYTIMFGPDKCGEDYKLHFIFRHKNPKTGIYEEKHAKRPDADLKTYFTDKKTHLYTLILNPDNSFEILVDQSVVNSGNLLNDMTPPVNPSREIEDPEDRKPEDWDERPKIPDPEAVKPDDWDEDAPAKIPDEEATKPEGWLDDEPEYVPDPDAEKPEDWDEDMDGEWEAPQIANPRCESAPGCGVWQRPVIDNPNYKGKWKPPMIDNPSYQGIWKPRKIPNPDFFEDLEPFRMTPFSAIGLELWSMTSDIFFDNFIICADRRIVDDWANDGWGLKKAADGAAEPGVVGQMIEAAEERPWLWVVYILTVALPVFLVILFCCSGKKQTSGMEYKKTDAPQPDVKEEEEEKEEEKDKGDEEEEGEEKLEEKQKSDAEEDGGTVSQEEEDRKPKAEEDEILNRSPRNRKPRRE
UniProt P47756, whole entry, looked up: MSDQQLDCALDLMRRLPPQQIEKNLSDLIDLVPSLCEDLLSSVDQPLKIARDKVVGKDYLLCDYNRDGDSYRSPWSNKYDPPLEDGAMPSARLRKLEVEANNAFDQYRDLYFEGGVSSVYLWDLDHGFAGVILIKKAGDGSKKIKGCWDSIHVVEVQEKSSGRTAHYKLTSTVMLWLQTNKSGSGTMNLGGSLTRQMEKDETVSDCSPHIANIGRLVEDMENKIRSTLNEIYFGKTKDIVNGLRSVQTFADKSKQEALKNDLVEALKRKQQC
UniProt Q8N6N3: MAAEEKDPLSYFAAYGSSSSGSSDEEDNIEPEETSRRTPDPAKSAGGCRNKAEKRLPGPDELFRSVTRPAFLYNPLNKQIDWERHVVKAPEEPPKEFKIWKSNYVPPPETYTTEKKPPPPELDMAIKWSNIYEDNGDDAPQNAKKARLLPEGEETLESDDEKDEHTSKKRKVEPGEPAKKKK
UniProt P04632: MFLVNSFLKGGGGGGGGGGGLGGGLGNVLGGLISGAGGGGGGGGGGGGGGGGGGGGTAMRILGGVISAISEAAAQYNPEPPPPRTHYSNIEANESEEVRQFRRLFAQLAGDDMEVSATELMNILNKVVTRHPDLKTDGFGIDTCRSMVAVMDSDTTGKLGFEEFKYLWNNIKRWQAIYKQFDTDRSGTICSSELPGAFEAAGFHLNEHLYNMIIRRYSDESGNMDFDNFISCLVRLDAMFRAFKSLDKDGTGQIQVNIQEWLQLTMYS
UniProt Q8IYL3: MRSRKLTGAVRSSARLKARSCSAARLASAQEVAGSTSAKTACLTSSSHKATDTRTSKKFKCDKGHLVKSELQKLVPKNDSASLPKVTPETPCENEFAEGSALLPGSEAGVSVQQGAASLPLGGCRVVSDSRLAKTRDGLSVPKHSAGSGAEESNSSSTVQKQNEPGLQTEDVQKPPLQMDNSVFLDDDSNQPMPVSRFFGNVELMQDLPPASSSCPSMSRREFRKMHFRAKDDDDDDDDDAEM
UniProt Q8WUQ7: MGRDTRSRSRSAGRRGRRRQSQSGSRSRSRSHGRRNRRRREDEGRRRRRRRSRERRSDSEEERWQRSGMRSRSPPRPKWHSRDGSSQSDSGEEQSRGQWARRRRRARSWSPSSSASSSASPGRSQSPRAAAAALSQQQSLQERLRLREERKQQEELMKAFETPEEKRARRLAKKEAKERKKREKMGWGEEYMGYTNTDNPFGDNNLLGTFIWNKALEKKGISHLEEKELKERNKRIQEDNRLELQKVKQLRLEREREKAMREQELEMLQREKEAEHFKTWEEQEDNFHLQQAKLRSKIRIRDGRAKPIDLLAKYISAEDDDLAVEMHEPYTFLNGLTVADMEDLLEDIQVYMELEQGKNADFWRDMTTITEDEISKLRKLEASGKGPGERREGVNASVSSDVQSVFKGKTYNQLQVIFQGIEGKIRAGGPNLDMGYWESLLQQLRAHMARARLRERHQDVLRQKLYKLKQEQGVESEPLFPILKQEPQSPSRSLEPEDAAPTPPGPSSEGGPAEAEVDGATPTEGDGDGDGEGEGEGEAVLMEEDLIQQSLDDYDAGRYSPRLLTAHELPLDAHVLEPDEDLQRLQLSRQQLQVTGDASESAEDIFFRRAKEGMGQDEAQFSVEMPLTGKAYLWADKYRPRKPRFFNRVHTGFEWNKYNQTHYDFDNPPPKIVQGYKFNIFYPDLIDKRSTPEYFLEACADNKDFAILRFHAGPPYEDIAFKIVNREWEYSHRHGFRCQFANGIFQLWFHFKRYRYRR
UniProt Q8N5I9: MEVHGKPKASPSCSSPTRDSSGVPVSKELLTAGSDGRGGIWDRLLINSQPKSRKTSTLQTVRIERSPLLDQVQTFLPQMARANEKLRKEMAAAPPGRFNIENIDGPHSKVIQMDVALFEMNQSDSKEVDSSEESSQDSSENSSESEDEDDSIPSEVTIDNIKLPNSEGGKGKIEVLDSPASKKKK

Experiments:
Assay in all cases: log2 fold change, soluble protein after heating vs DMSO (PISA); higher = thermal stabilisation; K562 cells, 10 uM, 30 min; active = over 0.2 and 3.5 SD of the protein, either way, in both replicates (recomputed)
[1] = compound: CN1CCN(CCOc2cc(OC3CCOCC3)c3c(Nc4c(Cl)ccc5c4OCO5)ncnc3c2)CC1 [saracatinib]
Outline: (§1)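 K562 cells (2×10^6 cells/mL) were treated with 10 μM compound for 30 min, and aliquots were heated for 3 min over 48°C-58°C. Pooled aliquots were extracted in PBS with 0.5% NP-40 at 4°C, and the supernatant after 21,000xg for 90 min was measured by TMTpro 16plex LC-MS/MS with channel sums equalised. Reported thermal stability, relative to control samples and from duplicates, is a log2 fold change.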

[2] = compound: CN1CCN(c2nc(C3=C(c4c[nH]c5ccccc45)C(=O)NC3=O)c3ccccc3n2)CC1 [sotrastaurin]
Outline: as §1

[3] = compound: CN1CC[C@H](c2c(O)cc(O)c3c(=O)cc(-c4ccccc4Cl)oc23)[C@H](O)C1 [alvocidib]
Outline: as §1

[4] = compound: CN1CCc2c(c3ccccc3n2Cc2ccc(C(=O)NO)cc2)C1 [Tubastatin A]
Outline: as §1

[5] = compound: CNC(=O)C1=CC=CC=C1NC2=NC(=NC=C2Cl)NC3=C(C=C(C=C3)N4CCOCC4)OC
Outline: as §1

[6] = compound: CNC(=O)c1ccc(Nc2ncc(C(F)(F)F)c(NCc3nccnc3N(C)S(C)(=O)=O)n2)cc1 [defactinib]
Outline: as §1

[7] = compound: CNCc1ccc(-c2[nH]c3cc(F)cc4c3c2CCNC4=O)cc1 [rucaparib]
Outline: as §1

[8] = compound: CNc1nc(-c2ccc3c(N)n[nH]c3c2)cc(N2C[C@@H](C(=O)NC3CCCCC3)CC[C@H]2C)n1
Outline: as §1

[9] = compound: COC(=O)N[C@@H](C)CNc1nccc(-c2cn(C(C)C)nc2-c2cc(Cl)cc(NS(C)(=O)=O)c2F)n1 [encorafenib]
Outline: as §1

[10] = compound: COC(=O)[C@H](CCSC)NC(=O)C1=C(C=C(C=C1)NC[C@H](CS)N)C2=CC=CC=C2
Outline: as §1

Measured: log2 fold change

CAPRIN1 (UniProt Q14444)
inactive: [1] 0.023 | [2] 0.047 | [3] 0.243 | [4] 0.035 | [5] 0.058 | [6] 0.122 | [7] 0.12 | [8] -0.022 | [9] 0.009 | [10] 0.003

C20orf27 isoform 2 (UniProt Q9GZN8)
inactive: [1] -0.065 | [2] -0.033 | [3] 0.01 | [4] 0 | [5] -0.028 | [6] -0.016 | [7] 0.004 | [8] 0.006 | [9] -0.021 | [10] -0.093

C8orf76 (UniProt Q96K31)
inactive: [1] 0.053 | [2] 0.125 | [3] -0.028 | [4] -0.098 | [5] 0.023 | [6] -0.131 | [7] 0.031 | [8] -0.123 | [9] -0.052 | [10] 0.022

C9orf78 (UniProt Q9NZ63)
inactive: [1] 0.036 | [2] 0.03 | [3] 0.014 | [4] -0.011 | [5] -0.011 | [6] 0.016 | [7] -0.059 | [8] -0.017 | [9] -0.019 | [10] 0.034

CAND2 (UniProt O75155)
inactive: [1] 0.067 | [2] 0.01 | [3] 0.076 | [4] -0.052 | [5] -0.051 | [6] 0.009 | [7] -0.096 | [8] -0.016 | [9] -0.015 | [10] 0.045

BUB3 (UniProt O43684)
inactive: [1] 0.023 | [2] 0.035 | [3] -0.003 | [4] -0.018 | [5] -0.046 | [6] -0.003 | [7] 0 | [8] -0.008 | [9] -0.03 | [10] 0.002

C18orf25 isoform 2 (UniProt Q96B23)
inactive: [1] 0.133 | [2] -0.047 | [3] -0.037 | [4] -0.01 | [5] -0.091 | [6] -0.03 | [7] -0.092 | [8] -0.087 | [9] 0.02 | [10] 0.016

C8orf82 (UniProt Q6P1X6)
inactive: [1] 0.067 | [2] -0.027 | [3] -0.003 | [4] -0.062 | [5] -0.008 | [6] 0.027 | [7] 0.046 | [8] -0.062 | [9] -0.026 | [10] -0.012

CAND1 (UniProt Q86VP6)
inactive: [1] 0.027 | [2] 0.007 | [3] 0 | [4] -0.042 | [5] -0.034 | [6] -0.01 | [7] -0.038 | [8] -0.055 | [9] 0.002 | [10] 0.016

C1GALT1C1 (UniProt Q96EU7)
inactive: [1] 0.072 | [2] 0.02 | [3] -0.032 | [4] 0.033 | [5] 0.015 | [6] 0.13 | [7] 0.063 | [8] 0.014 | [9] 0.038 | [10] -0.21

C11orf68 (UniProt Q9H3H3)
inactive: [1] 0.007 | [2] -0.002 | [3] -0.115 | [4] -0.008 | [5] -0.018 | [6] -0.088 | [7] -0.013 | [8] 0.013 | [9] -0.031 | [10] 0.006

CAPG (UniProt P40121)
inactive: [1] 0.033 | [2] -0.058 | [3] -0.034 | [4] -0.003 | [5] 0.033 | [6] -0.09 | [7] -0.045 | [8] -0.02 | [9] -0.01 | [10] -0.003

CANT1 (UniProt Q8WVQ1)
inactive: [1] 0.02 | [2] 0.004 | [3] -0.053 | [4] -0.009 | [5] 0.012 | [6] 0.001 | [7] -0.032 | [8] -0.046 | [9] -0.066 | [10] -0.029

CANX isoform 2 (UniProt P27824)
inactive: [1] -0.067 | [2] -0.057 | [3] 0.067 | [4] -0.018 | [5] 0.021 | [6] 0.076 | [7] 0.003 | [8] -0.002 | [9] 0.064 | [10] 0.04

C2orf69 (UniProt Q8N8R5)
inactive: [1] 0.039 | [2] 0 | [3] -0.067 | [4] -0.017 | [5] -0.035 | [6] -0.003 | [7] -0.094 | [8] -0.142 | [9] 0.05 | [10] 0.057

CALU isoform 4 (UniProt O43852)
inactive: [1] 0.003 | [2] 0.049 | [3] 0.026 | [4] -0.037 | [5] 0.005 | [6] 0.019 | [7] -0.009 | [8] -0.054 | [9] -0.033 | [10] 0.054

C18orf25 (UniProt Q96B23)
inactive: [1] 0.003 | [2] 0.091 | [3] -0.03 | [4] -0.009 | [5] -0.06 | [6] -0.025 | [7] -0.032 | [8] -0.078 | [9] -0.067 | [10] 0.097

Taken from above (2 entries):
CANT1 (UniProt Q8WVQ1)
inactive: [1] 0.02 | [2] 0.004 | [3] -0.053 | [4] -0.009 | [5] 0.012 | [6] 0.001 | [7] -0.032 | [8] -0.046 | [9] -0.066 | [10] -0.029

CANX isoform 2 (UniProt P27824)
inactive: [1] -0.067 | [2] -0.057 | [3] 0.067 | [4] -0.018 | [5] 0.021 | [6] 0.076 | [7] 0.003 | [8] -0.002 | [9] 0.064 | [10] 0.04

Remaining list, next part:

C17orf75 (UniProt Q9HAS0)
inactive: [1] 0.035 | [2] 0.039 | [3] -0.027 | [4] -0.009 | [5] -0.055 | [6] -0.033 | [7] -0.006 | [8] -0.01 | [9] 0.026 | [10] 0.033

CAPZB (UniProt P47756)
inactive: [1] -0.004 | [2] 0.029 | [3] -0.054 | [4] -0.021 | [5] 0.024 | [6] 0.007 | [7] -0.02 | [8] 0 | [9] -0.035 | [10] 0.028

CAPZA1 (UniProt P52907)
inactive: [1] 0.027 | [2] 0.013 | [3] -0.017 | [4] 0 | [5] -0.013 | [6] -0.025 | [7] -0.028 | [8] -0.013 | [9] -0.004 | [10] -0.006

C12orf73 (UniProt Q69YU5)
inactive: [1] 0.018 | [2] 0.087 | [3] 0.03 | [4] -0.133 | [5] -0.02 | [6] 0.062 | [7] 0.002 | [8] -0.072 | [9] -0.068 | [10] 0.127

C1orf52 (UniProt Q8N6N3)
inactive: [1] 0.014 | [2] 0.005 | [3] 0.039 | [4] -0.024 | [5] -0.04 | [6] -0.009 | [7] 0.033 | [8] -0.028 | [9] -0.032 | [10] 0.055

CAPZB isoform 2 (UniProt P47756)
inactive: [1] 0.067 | [2] -0.013 | [3] 0.039 | [4] -0.036 | [5] 0.035 | [6] 0.02 | [7] -0.086 | [8] -0.063 | [9] 0.028 | [10] 0.101

CAPNS1 (UniProt P04632)
inactive: [1] 0.046 | [2] 0.057 | [3] -0.031 | [4] -0.022 | [5] 0.014 | [6] 0.02 | [7] -0.06 | [8] 0.003 | [9] -0.008 | [10] 0.035

CAPN7 (UniProt Q9Y6W3)
inactive: [1] 0.001 | [2] -0.109 | [3] -0.073 | [4] 0.029 | [5] 0.005 | [6] -0.064 | [7] -0.021 | [8] 0.011 | [9] 0.037 | [10] -0.004

C1orf174 (UniProt Q8IYL3)
inactive: [1] 0 | [2] 0.102 | [3] 0.296 | [4] -0.017 | [5] 0.001 | [6] -0.007 | [7] -0.069 | [8] -0.068 | [9] -0.053 | [10] 0.075

CACTIN isoform 2 (UniProt Q8WUQ7)
inactive: [1] -0.015 | [2] -0.041 | [3] 0.07 | [4] 0.034 | [5] -0.103 | [6] -0.066 | [7] 0.007 | [8] -0.007 | [9] 0.099 | [10] 0.004

CAAP1 (UniProt Q9H8G2)
inactive: [1] -0.031 | [2] 0.011 | [3] -0.112 | [4] -0.004 | [5] -0.041 | [6] -0.001 | [7] 0.046 | [8] -0.177 | [9] -0.029 | [10] 0.032

C12orf45 (UniProt Q8N5I9)
inactive: [1] 0.052 | [2] -0.01 | [3] -0.002 | [4] 0.028 | [5] -0.015 | [6] -0.014 | [7] -0.118 | [8] -0.056 | [9] -0.007 | [10] 0.021
